# Measured values from patent US20260265404A1.
# Positions count from the first letter of the chain named. Results are given in words; binding and its absence hold for the method and conditions named. Binding can be weak; no strength is given.
# B1: 1B9 antibody (human CD33^PAN antibody clone, hybridoma-derived) (antibody, V domains shown)
# VH: QVQLVESGGGVVQPGRSLRLSCAASGFIFSSYDIHWVRQAPGKGLEWVAVIWYDGSHNYYSDSVKGRFTISRDNSKNTLYLQMNSLRAEDTAVYYCARDYSGSYFDYWGQGTLVTVSS
# VL: AIQMTQSPSSLSASVGDRVTITCRASQDIRNDLGWYLQRPGKAPKLLIYAASSLQSGVPSRFSGSGSGTDFTLTISSLQPEDFATYYCLQDYSYPRTFGQGTTVEIK
# B2: 1H10 antibody (human CD33^PAN antibody clone, hybridoma-derived) (antibody, V domains shown)
# VH: QVQLVQSGAEVKKPGASVKVSCKGSGYIFTSYDMHWVRQAPGQGLEWMGIIDPSGGSTSYAQKFQGRVTMTRDTSMSTVYMELSSLRSEDTAVYYCTRDYSWSYFDYWGQGTLVTVSS
# VL: B1 VL with D28G, N31I, D32Y, L37Q, R39K, A51T, S93N, R96W, T103K
# B3: 1A9 antibody (human CD33^PAN antibody clone, hybridoma-derived) (antibody, V domains shown)
# VH: EVQLVESGGGLVQPGGSLRLSCAASGFTFSIYDMHWVRQATGKGLEWVSAIGTAGDTYYAGSVKGRFTISRENAKNSLYLQMNSLRAGDTAVYYCAREYSGYYFDYWGQGTLVTVSS
# VL: B1 VL with L37Q, R39K, L46I, A50G, L73F, D91E, S93N, R96C, T103K, V104L
# B4: 1E6 antibody (human CD33^PAN antibody clone, hybridoma-derived) (antibody, V domains shown)
# VH: B1 VH with I28T, F105Y
# VL: B1 VL with D28G, L37Q, R39K, S53N, T103K
# B5: 1D2 antibody (human CD33^PAN antibody clone, hybridoma-derived) (antibody, V domains shown)
# VH: B1 VH with I28T, H57Q, N58K, S61A, F105Y
# VL: B1 VL with D28G, L37Q, R39K, K45E, A51T, T74I, T103K
# Target: human CD33 with deletion of exon 2, lacking the V-set domain (CD33^ΔE2) (human)
# Test: flow cytometry on REH subline expressing CD33^ΔE2
row,Binder,binding
1,B1,binds
2,B2,binds
3,B3,binds
4,B4,binds
5,B5,binds
